According to the odorant receptor screen of Mainland et al. (2015):
Values joined by “and” are separate entries in the source; they are usually repeats but may differ in a detail not shown here. Equal entries are not always repeated. This is one part of the list. Single wells; the ratio to wells without odorant was worked out here, and repeats agree poorly.

What was measured:
Assay in all cases: odorant receptor activation (CRE luciferase / Renilla) (fold of no-odor wells); higher = more activation
Details in all cases: 100 µM
[1] = tested on: OR8S1 M48V/L82P/R128C/A198T clone 1279
OR8U9 clone 1439 = tested on: OR8U9 clone 1439
OR9A2 clone 1080 = tested on: OR9A2 clone 1080
OR9G1 clone 1111 = tested on: OR9G1 clone 1111
OR9G4 N191D clone 1109 = tested on: OR9G4 N191D clone 1109
OR9G9 clone 1170 = tested on: OR9G9 clone 1170
OR9I1 clone 1180 = tested on: OR9I1 clone 1180
OR8U1 clone 1242 = tested on: OR8U1 clone 1242
OR8U8 clone 1499 = tested on: OR8U8 clone 1499
OR9A4 clone 1081 = tested on: OR9A4 clone 1081

Row | SMILES | odorant receptor activation [1] | odorant receptor activation (OR8U9 clone 1439) | odorant receptor activation (OR9A2 clone 1080) | odorant receptor activation (OR9G1 clone 1111) | odorant receptor activation (OR9G4 N191D clone 1109) | odorant receptor activation (OR9G9 clone 1170) | odorant receptor activation (OR9I1 clone 1180) | odorant receptor activation (OR8U1 clone 1242) | odorant receptor activation (OR8U8 clone 1499) | odorant receptor activation (OR9A4 clone 1081)
1 | CCCCCCC=O [heptaldehyde] | 0.417 and 0.727 and 0.955 | 1.23 and 1.04 | 0.542 and 1.2 | 1.72 and 1.9 | 1.46 and 0.659 | 0.371 and 0.98 | 0.387 and 1.03 |  |  | 
2 | O=C1CCCCCCCCCCCCCCO1 [pentadecalactone] | 0.88 | 1.24 | 0.831 | 0.731 | 1.06 | 0.807 | 0.807 | 0.789 | 0.725 | 0.88
3 | CC(=O)OC1CC2CCC1(C)C2(C)C (stereo unspecified) [isobornyl acetate] | 0.891 and 1.03 | 0.87 | 0.492 | 0.809 | 0.675 | 0.903 | 0.981 | 1.11 and 1.08 | 0.53 and 1.34 | 6.41
4 | CC12C=CCC1C1CCC3CC(=O)CCC3(C)C1CC2 (stereo unspecified) [androstenone] | 0.935 | 0.823 | 5.12 | 20.8 | 2.8 | 5.63 | 6.31 | 1.32 | 1.19 | 1.59
5 | COC(=O)c1ccccc1 [methyl benzoate] | 0.542 | 0.771 | 1.07 | 1.88 | 0.872 | 0.851 | 0.848 | 0.242 | 0.981 and 0.971 | 1.62
6 | CC1=CCC(C(C)(C)O)CC1 (stereo unspecified) [terpineol] | 0.827 | 0.893 | 1.01 | 1.15 | 1.22 | 0.993 | 0.966 | 1.05 | 0.599 | 1.04
7 | CC1COCc2cc3c(cc21)C(C)(C)C(C)C3(C)C (stereo unspecified) [galaxolide] |  | 3.06 | 2.46 | 2.11 | 2.03 | 0.735 | 0.846 | 4.25 and 3.39 | 3.25 and 6.03 | 4.29
8 | CC(=O)OCC=C(C)CCC=C(C)C [geranyl acetate] | 0.927 and 1.3 | 1.16 | 0.883 | 1.82 | 0.603 | 0.967 | 0.881 | 1.78 and 1.53 |  | 8.94
9 | CCCC(=O)O [butyric acid] | 0.764 | 0.133 | 1.16 | 1.15 | 1.06 | 1.11 | 0.934 | 1.23 | 1.05 | 0.95
10 | C=CCc1ccc(OC(C)=O)c(OC)c1 [eugenol acetate] | 1.63 | 1.71 | 2.07 | 1.84 | 1.64 | 2 | 1.62 | 1.57 | 1.33 | 1.5
11 | CC12CCC(C1)C(C)(C)C2=O (stereo unspecified) [fenchone] | 1.16 | 0.967 | 1.21 | 1.23 | 1.18 | 1.13 | 0.971 | 1.07 | 1.15 | 1.12
12 | CC12CCC(CC1)C(C)(C)O2 [cineole] | 0.945 | 0.117 | 0.704 | 1.07 | 0.816 | 0.746 | 0.732 | 1.23 | 0.982 | 0.633
13 | CC(=O)OC(C)(C)C1CC=C(C)CC1 (stereo unspecified) [terpinyl acetate] | 0.896 | 0.804 | 1.29 | 1.39 | 1.27 | 1.52 | 1.24 | 0.856 | 0.696 | 1.69
14 | C=CCc1ccc(O)c(OC)c1 [eugenol] | 1.43 and 1.42 | 1.7 and 1.4 | 0.662 and 1.54 | 1.83 and 1.58 | 1.55 and 1.46 | 2.27 and 1.53 | 1.74 and 1.12 | 0.65 and 1.53 | 1.96 and 1.03 and 1.06 | 0.936 and 1.48
15 | COc1cc(C)ccc1O [2-methoxy-4-methylphenol] | 0.633 | 0.875 | 4.83 | 18.5 | 2.58 | 1.32 | 1.6 | 1.05 | 0.81 | 2.09
16 | CC(C)CC(=O)O [isovaleric acid] | 0.784 | 1.04 | 1.39 | 0.958 | 1.21 | 1.15 | 1.19 | 1.13 | 1.14 | 1.07
17 | CC1CCC(C(C)C)C(O)C1 (single isomer, unassigned; (+)) [(+)-menthol] | 0.669 | 0.478 | 7.03 | 34.2 | 7.04 | 1.3 | 1.27 | 1.04 | 1.19 | 4.23
18 | COc1cc(C=O)ccc1O [vanillin] | 1.03 | 1.01 | 1 | 0.797 | 0.956 | 1.34 | 0.905 | 1.2 | 0.882 | 0.913
19 | C=CCSCC=C [diallyl sulfide] | 0.97 | 1.14 | 0.915 | 1.33 | 1.1 | 1.06 | 0.989 | 1 | 1.11 | 1.02
20 | CCCCO [1-butanol] | 1.05 | 0.568 | 7.89 | 23.5 | 4.56 | 1.17 | 1.4 | 1.12 | 1.47 | 3.25
21 | CC/C=C\CCO [cis-3-hexen-1-ol] | 0.879 | 0.129 | 0.985 | 1.21 | 0.995 | 0.891 | 0.987 | 1.22 | 0.914 | 0.875
22 | COc1ccccc1O [guaiacol] | 0.949 and 0.884 | 0.796 | 1.04 | 1.38 | 0.753 | 1.03 | 0.971 | 1.54 |  | 6.14
23 | C=C(C)C1CC=CCC1 (stereo unspecified) [r-limonene] | 0.924 and 0.329 | 1.25 and 1.08 | 1.18 and 1.15 | 1.01 and 1.49 | 1.28 and 0.872 | 1.17 and 0.537 | 0.924 and 0.525 |  | 0.881 and 0.834 and 0.908 | 1.32 and 1.11
24 | CCCCCCCOC(C)=O [heptyl acetate] | 0.975 and 1.17 | 0.938 | 0.9 | 1.66 | 0.628 | 0.828 | 1.11 | 1.24 and 1.63 |  | 10.5
25 | c1ccc(Oc2ccccc2)cc1 [diphenyl ether] | 1.03 | 0.954 | 0.901 | 1.2 | 0.959 | 1.04 | 0.937 | 1.16 | 1.21 | 0.934
26 | CC=Cc1ccc(O)c(OC)c1 [isoeugenol] | 1.07 and 1.41 | 1.54 | 0.809 | 1.38 | 0.815 | 0.848 | 1.05 | 1.4 and 2.08 |  | 1.75
27 | CCCCCC(=O)O [caproic acid] | 0.799 | 0.118 | 0.987 | 1.02 | 1.11 | 0.98 | 0.975 | 0.84 | 0.946 | 0.77
28 | C=CC(C)(O)CCC=C(C)C (stereo unspecified) [linalool] | 0.886 | 1.09 | 1.13 | 1.05 | 1.29 | 1.02 | 0.996 | 1.27 | 1.49 | 1.25

An excerpt of these results, as tab-separated lines:
Row	SMILES	odorant receptor activation [1]	odorant receptor activation (OR8U9 clone 1439)	odorant receptor activation (OR9A2 clone 1080)	odorant receptor activation (OR9G1 clone 1111)	odorant receptor activation (OR9G4 N191D clone 1109)	odorant receptor activation (OR9G9 clone 1170)	odorant receptor activation (OR9I1 clone 1180)	odorant receptor activation (OR8U1 clone 1242)	odorant receptor activation (OR8U8 clone 1499)	odorant receptor activation (OR9A4 clone 1081)
7	CC1COCc2cc3c(cc21)C(C)(C)C(C)C3(C)C (stereo unspecified) [galaxolide]		3.06	2.46	2.11	2.03	0.735	0.846	4.25 and 3.39	3.25 and 6.03	4.29
8	CC(=O)OCC=C(C)CCC=C(C)C [geranyl acetate]	0.927 and 1.3	1.16	0.883	1.82	0.603	0.967	0.881	1.78 and 1.53		8.94
16	CC(C)CC(=O)O [isovaleric acid]	0.784	1.04	1.39	0.958	1.21	1.15	1.19	1.13	1.14	1.07
17	CC1CCC(C(C)C)C(O)C1 (single isomer, unassigned; (+)) [(+)-menthol]	0.669	0.478	7.03	34.2	7.04	1.3	1.27	1.04	1.19	4.23
28	C=CC(C)(O)CCC=C(C)C (stereo unspecified) [linalool]	0.886	1.09	1.13	1.05	1.29	1.02	0.996	1.27	1.49	1.25
